The list shows a part of the results. Shown are side measurements of this screen, not its main read-out; they come without a call. The list favours compounds with an active or inconclusive main result. The note in brackets gives the kind of curve behind each potency; many fits are weak.

Broadly, the AC50 is the midpoint of the concentration-response curve, whichever way the signal moves.

This test can be described thus: qHTS Assay for Modulators of Lamin A Splicing. Particulars: HeLa LMNA splicing GFP/RFP minigene ratio, 48 h. The essentials: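 Read-out is the ratio of GFP to DsRed2 object intensity, acquired by 488 nm laser-scanning cytometry on HeLa lamin A-EGFP minigene reporter cells. Compound incubation 48 hrs at 37 °C in Opti-MEM with 2% FBS; DMSO 0.5% final.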
Background: qHTS replaces the single test concentration by a dilution series.

Setting [1] is: measured here: RFP viability control channel.
Setting [2] is: measured here: GFP splicing reporter channel.

Regarding `C/C(=N/NC(=O)CNC(=O)Cc1ccc(Cl)cc1)c1ccco1`, the AC50 under setting [1] was 0.0794 µM [falling, full curve, poor fit].
As to `CCOC(=O)C1CCN(C(c2cccnc2)c2c(NC(=O)c3ccco3)sc(C)c2C)CC1` (configuration not stated), the AC50 under setting [2] is 35.5 µM [rising, single point] and the concentration at half-maximal activity (AC50) under setting [1] is 11.2 µM [rising, partial curve].
As to `CC(C)(C)c1nn(-c2ccccc2)c2[nH]c(=O)c(CNc3ccc4c(c3)OCCO4)cc12`, the AC50 was 11.2 µM [rising, partial curve] under setting [2] and 11.2 µM [rising, partial curve] under setting [1].
For `CCc1ccc2c(c1)C1(C(=O)N2)N2CCCC2C(C(=O)c2ccc3ccccc3c2)C12C(=O)Nc1ccccc12` (configuration not stated), the half-maximal activity concentration (AC50) is 35.5 µM [falling, single point] under setting [2] and 35.5 µM [falling, single point] under setting [1].
`S=c1nc(-c2ccccc2Cl)n(Cc2cccnc2)c2c1CCCC2`: the AC50 under setting [2] was 0.00355 µM [falling, full curve, poor fit].
Regarding `COc1ccc(Br)cc1CNC(=O)c1ccc(-n2c(C)cc3c2CCC(C)C3)cc1` (configuration not stated), the concentration at half-maximal activity (AC50) under setting [1] is 0.0224 µM [falling, full curve, poor fit].
Regarding `Cc1cc(=O)n(C)c(=O)n1CCCCCCOc1cccc([N+](=O)[O-])c1`, the AC50 under setting [1] was 14.1 µM [rising, partial curve].
With `Cc1nn(C)c2c1c(C(F)(F)F)cc(=O)n2CC(=O)NC(C)(C)C`, the AC50 under setting [2] is 0.0562 µM [falling, full curve, poor fit] and the AC50 under setting [1] is 0.0141 µM [falling, full curve, poor fit].
Consider `Cc1ccc(C(=O)Nc2ccc(N3CCN(S(C)(=O)=O)CC3)cc2)cc1C`, for which the AC50 under setting [1] is 2.51 µM [falling, partial curve, poor fit].
For `COc1ccc(-c2cc(-c3cccs3)c(C#N)c(SCC(=O)NCc3ccco3)n2)cc1`, the AC50 under setting [2] was 5.62 µM [rising, full curve].
As for `COC(=O)c1[nH]c2cccc(OC)c2c1NC(=O)CCN1CCN(c2cccc(Cl)c2)CC1`, the AC50 under setting [1] was 35.5 µM [rising, partial curve].
`Cc1ccc(S(=O)(=O)NNC(=O)c2ccccc2O)cc1`: the AC50 under setting [1] is 10 µM [rising, partial curve, poor fit].
Regarding `O=[N+]([O-])c1cccc(C(=Nc2cccc(Cl)c2)NO)c1`, the AC50 under setting [1] is 14.1 µM [rising, single point].
For the compound `C[C@H](NCCC(c1ccccc1)c1ccccc1)c1ccccc1`, the half-maximal activity concentration (AC50) by setting is: under setting [2], 3.16 µM [falling, partial curve]; under setting [1], 3.16 µM [falling, full curve].
`Clc1cc(Sc2ccc(Br)cc2)nnc1-c1ccccc1`: the AC50 under setting [1] is 35.5 µM [falling, single point].
Consider `COC(=O)Cc1ccc(NC(=O)c2ccc(C(C)(C)C)cc2)cc1`, for which the AC50 under setting [1] was 10 µM [rising, partial curve].
For `CCN(c1cccc(C(F)(F)F)c1)S(=O)(=O)c1ccc2c(c1)CCN2C(C)=O`, under setting [1], the concentration at half-maximal activity (AC50) is 35.5 µM [rising, single point].
For the compound `CN(Cc1ccccc1)C(=S)Nc1cccnc1`, the AC50 under setting [2] was 0.00501 µM [rising, full curve, poor fit].
On to `O=C(OCC(=O)N1CCc2ccccc2C1)c1cccnc1Cl`, for which the concentration at half-maximal activity (AC50) under setting [1] is 0.00794 µM [rising, full curve].
Turning to `COC(=O)c1ccc(NC(=O)c2c(NCc3ccc(OC)c(OC)c3)sc3c2CCCC3)cc1`, under setting [1], the AC50 is 20 µM [rising, partial curve].
Turning to `Cc1nn(-c2ccccc2)c(C)c1/C=N/NC(=O)c1cc(-c2ccc(Br)s2)[nH]n1`, the concentration at half-maximal activity (AC50) was 25.1 µM [falling, single point] under setting [2] and 3.16 µM [falling, single point] under setting [1].
In the case of `Cc1cc(C(=O)CSc2nnc(C3COc4ccccc4O3)n2C)c(C)n1-c1ccc(F)cc1` (configuration not stated), under setting [1], the AC50 is 35.5 µM [rising, single point].
Same read-out and setting: the result for `CN(c1cccc(NC(=O)CSc2ccc(Cl)cc2)c1)S(C)(=O)=O` reads 35.5 µM [rising, single point].
As for `CCCCOc1ccc(C(=O)NCCc2csc3nc(-c4ccccc4F)nn23)cc1`, the half-maximal activity concentration (AC50) runs as follows: under setting [2], 8.91 µM [falling, partial curve, poor fit]; under setting [1], 14.1 µM [falling, partial curve, poor fit].
Regarding `COc1ccc(Cn2ccnc2)cc1Br`, the half-maximal activity concentration (AC50) under setting [2] was 0.00501 µM [rising, full curve, poor fit].
As to `CN1C(=O)c2ccccc2N(C)C1c1ccc2c(c1)OCO2` (configuration not stated), the half-maximal activity concentration (AC50) under setting [1] was 11.2 µM [rising, partial curve, poor fit].
With `CCN(CC)S(=O)(=O)c1ccc(C2=NOC3(C2)N(C)c2ccccc2C3(C)C)cc1` (configuration not stated), the AC50 is, setting by setting: under setting [2], 5.62 µM [rising, partial curve]; under setting [1], 6.31 µM [rising, partial curve].
`CCOC(=S)SCC(=O)Nc1nc(-c2ccc(Br)cc2)cs1`: the AC50 is, setting by setting: under setting [2], 35.5 µM [falling, single point]; under setting [1], 3.16 µM [falling, partial curve].
For the compound `COc1ccc(-c2[nH]ncc2/C=C(/C#N)C(=O)NC2CCCCCC2)cc1`, the AC50 under setting [1] was 35.5 µM [rising, single point].
Turning to `O=c1cc(-c2ccccc2)[nH]c2ccccc12`, under setting [1], the AC50 is 3.16 µM [rising, full curve].
The same measure, in the same setting: as for `COc1ccc(CSc2nnnn2-c2ccccc2)cc1`, the figure is 31.6 µM [rising, single point]; as for `Cc1ccccc1C(=O)Nc1ccc(C(=O)OCc2cc(=O)n3c4c(sc3n2)CCCC4)cc1`, 11.2 µM [rising, partial curve]; as for `Brc1ccc(-c2csc(N3CCOCC3)n2)cc1`, 10 µM [falling, partial curve].
In the case of `Cc1ccc2[nH]c3c(NCc4ccco4)ncnc3c2c1`, the concentration at half-maximal activity (AC50) reads like this: under setting [2], 2.82 µM [rising, single point]; under setting [1], 3.16 µM [rising, full curve].
Turning to `C=CCCC(=O)Nc1nc(C)c(-c2csc(Nc3cc(OC)ccc3OC)n2)s1`, the AC50 was 5.62 µM [falling, single point] under setting [2] and 1 µM [falling, single point] under setting [1].
In the case of `COc1ccc(CNC(=O)C2CC(c3ccc(OC)cc3)=NO2)cc1` (configuration not stated), under setting [1], the AC50 is 8.91 µM [falling, partial curve].

For the origin of these results see PubChem BioAssay AID1487 (National Center for Advancing Translational Sciences (NCATS), 2009).
